B1: hu40E9-L3H1 (antibody, V domains shown)
VH: EVQLVQSGAEVKKPGSSVKVSCKASGGTFSSYVIHWVRQAPGQGLEWMGYINPYNDVIKYNEKFKGRVTITADKSTSTAYMELSSLRSEDTAVYYCARDSYYSYDGFAYWGQGTLVTVSS
VL: EIVLTQSPDFQSVTPKEKVTITCSASSSVSYMHWYQQKPDQSPKRWIYDTSKLASGVPSRFSGSGSGTDYTLTINSLEAEDAATYYCQQWSSNPPTFGGGTKVEIK
B2: hu40E9-L4H3 (antibody, V domains shown)
VH: EVQLVQSGAEVKKPGSSVKVSCKASGYTFSSYVIHWVRQAPGQGLEWMGYINPYNDVIKYNEKFKGRVTLTSDKSTSTAYMELSSLRSEDTAVYYCARDSYYSYDGFAYWGQGTLVTVSS
VL: EIVLTQSPDFQSVTPKEKVTITCSASSSVSYMHWYQQKPDQSPKRLIYDTSKLASGVPSRFSGSGSGTDFTLTINSLEAEDAATYYCQQWRSRPPTFGGGTKVEIK
B3: hu40E9-L2H14 (antibody, V domains shown)
VH: EVQLVQSGAEVKKPGSSVKVSCKASGYTFSSYVIHWVRQAPGQGLEWMGYINPYNDVIKYNEKFKGRVTLTSDKSTSTAYMELSSLRSEDTAVYYCARESYYSYDGFAYWGQGTLVTVSS
VL: EIVLTQSPDFQSVTPKEKVTITCSASSSVSYMHWYQQKPDQSPKRLIYDTSKLASGVPSRFSGSGSGTDFTLTINSLEAEDAATYYCQQWSSNPPTFGGGTKVEIK
B4: hu40E9-L2H3-D105E.H (antibody, V domains shown)
VH: EVQLVQSGAEVKKPGSSVKVSCKASGYTFSSYVIHWVRQAPGQGLEWMGYINPYNDVIKYNEKFKGRVTLTSDKSTSTAYMELSSLRSEDTAVYYCARDSYYSYEGFAYWGQGTLVTVSS
VL: EIVLTQSPDFQSVTPKEKVTITCSASSSVSYMHWYQQKPDQSPKRLIYDTSKLASGVPSRFSGSGSGTDFTLTINSLEAEDAATYYCQQWSSNPPTFGGGTKVEIK
B5: hu40E9-L6H3 (antibody, V domains shown)
VH: EVQLVQSGAEVKKPGSSVKVSCKASGYTFSSYVIHWVRQAPGQGLEWMGYINPYNDVIKYNEKFKGRVTLTSDKSTSTAYMELSSLRSEDTAVYYCARDSYYSYDGFAYWGQGTLVTVSS
VL: EIVLTQSPDFQSVTPKEKVTITCSASSSVSYMHWYQQKPDQSPKRLIYDTSKLASGVPSRFSGSGSGTDFTLTINSLEAEDAATYYCQQWRSWPPTFGGGTKVEIK
B6: hu40E9-L2H2 (antibody, V domains shown)
VH: EVQLVQSGAEVKKPGSSVKVSCKASGYTFSSYVIHWVRQAPGQGLEWMGYINPYNDVIKYNEKFKGRVTITADKSTSTAYMELSSLRSEDTAVYYCARDSYYSYDGFAYWGQGTLVTVSS
VL: EIVLTQSPDFQSVTPKEKVTITCSASSSVSYMHWYQQKPDQSPKRLIYDTSKLASGVPSRFSGSGSGTDFTLTINSLEAEDAATYYCQQWSSNPPTFGGGTKVEIK
B7: hu40E9-L4H7 (antibody, V domains shown)
VH: EVQLVQSGAEVKKPGSSVKVSCKASGYTFSSYVIHWVRQAPGQGLEWMGYINPGNGVIKYNEKFKGRVTLTSDKSTSTAYMELSSLRSEDTAVYYCARDSYSSYDGFAYWGQGTLVTVSS
VL: EIVLTQSPDFQSVTPKEKVTITCSASSSVSYMHWYQQKPDQSPKRLIYDTSKLASGVPSRFSGSGSGTDFTLTINSLEAEDAATYYCQQWRSRPPTFGGGTKVEIK
B8: hu40E9-L2H5 (antibody, V domains shown)
VH: EVQLVQSGAEVKKPGSSVKVSCKASGYTFSSYVIHWVRQAPGQGLEWMGYINPGSGVIKYNEKFKGRVTLTSDKSTSTAYMELSSLRSEDTAVYYCARDSYYSYDGFAYWGQGTLVTVSS
VL: EIVLTQSPDFQSVTPKEKVTITCSASSSVSYMHWYQQKPDQSPKRLIYDTSKLASGVPSRFSGSGSGTDFTLTINSLEAEDAATYYCQQWSSNPPTFGGGTKVEIK
B9: hu40E9-L2H16 (antibody, V domains shown)
VH: EVQLVQSGAEVKKPGSSVKVSCKASGYTFSDYVIHWVRQAPGQGLEWMGYINPYNDVIKYNEKFKGRVTLTSDKSTSTAYMELSSLRSEDTAVYYCARDSYYSYDGFAYWGQGTLVTVSS
VL: EIVLTQSPDFQSVTPKEKVTITCSASSSVSYMHWYQQKPDQSPKRLIYDTSKLASGVPSRFSGSGSGTDFTLTINSLEAEDAATYYCQQWSSNPPTFGGGTKVEIK
B10: hu40E9-L2H7 (antibody, V domains shown)
VH: EVQLVQSGAEVKKPGSSVKVSCKASGYTFSSYVIHWVRQAPGQGLEWMGYINPGNGVIKYNEKFKGRVTLTSDKSTSTAYMELSSLRSEDTAVYYCARDSYSSYDGFAYWGQGTLVTVSS
VL: EIVLTQSPDFQSVTPKEKVTITCSASSSVSYMHWYQQKPDQSPKRLIYDTSKLASGVPSRFSGSGSGTDFTLTINSLEAEDAATYYCQQWSSNPPTFGGGTKVEIK
B11: hu40E9-L2H4 (antibody, V domains shown)
VH: EVQLVQSGAEVKKPGSSVKVSCKASGYTFSSYVIHWVRQAPGQGLEWIGYINPYNDVIKYNEKFKGRATLTSDKSTSTAYMELSSLRSEDTAVYYCARDSYYSYDGFAYWGQGTLVTVSS
VL: EIVLTQSPDFQSVTPKEKVTITCSASSSVSYMHWYQQKPDQSPKRLIYDTSKLASGVPSRFSGSGSGTDFTLTINSLEAEDAATYYCQQWSSNPPTFGGGTKVEIK
B12: hu40E9-L2H9 (antibody, V domains shown)
VH: EVQLVQSGAEVKKPGSSVKVSCKASGYTFSSYVIHWVRQAPGQGLEWMGYINPYSDVIKYNEKFKGRVTLTSDKSTSTAYMELSSLRSEDTAVYYCARESFYSYDGFAYWGQGTLVTVSS
VL: EIVLTQSPDFQSVTPKEKVTITCSASSSVSYMHWYQQKPDQSPKRLIYDTSKLASGVPSRFSGSGSGTDFTLTINSLEAEDAATYYCQQWSSNPPTFGGGTKVEIK
B13: hu40E9-L5H7 (antibody, V domains shown)
VH: EVQLVQSGAEVKKPGSSVKVSCKASGYTFSSYVIHWVRQAPGQGLEWMGYINPGNGVIKYNEKFKGRVTLTSDKSTSTAYMELSSLRSEDTAVYYCARDSYSSYDGFAYWGQGTLVTVSS
VL: EIVLTQSPDFQSVTPKEKVTITCSASSSVSYMHWYQQKPDQSPKRLIYDTSKLASGVPSRFSGSGSGTDFTLTINSLEAEDAATYYCQQWRSSPPTFGGGTKVEIK
B14: hu40E9-L2H3-G106A.H (antibody, V domains shown)
VH: EVQLVQSGAEVKKPGSSVKVSCKASGYTFSSYVIHWVRQAPGQGLEWMGYINPYNDVIKYNEKFKGRVTLTSDKSTSTAYMELSSLRSEDTAVYYCARDSYYSYDAFAYWGQGTLVTVSS
VL: EIVLTQSPDFQSVTPKEKVTITCSASSSVSYMHWYQQKPDQSPKRLIYDTSKLASGVPSRFSGSGSGTDFTLTINSLEAEDAATYYCQQWSSNPPTFGGGTKVEIK
B15: hu40E9-L5H3 (antibody, V domains shown)
VH: EVQLVQSGAEVKKPGSSVKVSCKASGYTFSSYVIHWVRQAPGQGLEWMGYINPYNDVIKYNEKFKGRVTLTSDKSTSTAYMELSSLRSEDTAVYYCARDSYYSYDGFAYWGQGTLVTVSS
VL: EIVLTQSPDFQSVTPKEKVTITCSASSSVSYMHWYQQKPDQSPKRLIYDTSKLASGVPSRFSGSGSGTDFTLTINSLEAEDAATYYCQQWRSSPPTFGGGTKVEIK

The chains behind the UniProt entries cited, without tags or fusion partners. Where a name states a change or a piece, a line headed by the entry shows the natural chain unless it says otherwise.
UniProt P07766: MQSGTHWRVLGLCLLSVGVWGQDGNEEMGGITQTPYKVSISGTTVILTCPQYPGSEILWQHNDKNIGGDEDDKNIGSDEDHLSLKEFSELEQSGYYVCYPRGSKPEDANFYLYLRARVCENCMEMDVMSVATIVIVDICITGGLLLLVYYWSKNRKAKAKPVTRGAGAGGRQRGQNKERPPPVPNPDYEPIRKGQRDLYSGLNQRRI
UniProt P04234: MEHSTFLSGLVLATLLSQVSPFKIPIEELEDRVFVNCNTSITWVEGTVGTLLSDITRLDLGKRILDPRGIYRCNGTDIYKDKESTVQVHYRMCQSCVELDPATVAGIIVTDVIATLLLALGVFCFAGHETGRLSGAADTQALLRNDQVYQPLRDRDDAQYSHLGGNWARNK
UniProt P09693: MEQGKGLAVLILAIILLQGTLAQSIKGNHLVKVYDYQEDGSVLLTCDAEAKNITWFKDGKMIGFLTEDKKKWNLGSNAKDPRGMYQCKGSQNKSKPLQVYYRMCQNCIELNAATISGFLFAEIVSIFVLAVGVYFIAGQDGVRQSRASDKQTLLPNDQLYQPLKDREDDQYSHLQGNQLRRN

These are yes or no findings as the source states them, for the method shown. Some results given as binding are weak or reduced against the parent protein; the word gives no strength.

In the experiment the target is human CD3 (human) (UniProt P07766+P04234+P09693). Briefly: FACS on Jurkat cells.
For the molecule B1, the binding entry is “binds”. The entry for B2 is “binds”.

As to B3, the binding entry is “binds”. The entry for B4 is “binds”. The value for B5 was “binds”.

Turning to B6, the binding result was “binds”.

On to B7, for which the binding result is recorded as “binds”.

B8: the binding entry was “binds”. The value for B9 was “binds”; that for B10 was “binds”. The value for B11 was “binds”. On to B12, for which the binding entry is on record as “binds”. Take B13: the binding entry was “binds”.

With B14, the binding result is listed as “binds”. For the molecule B15, the binding result was “binds”.

Source of the values: patent publication US20250223358A1.
